No constants are given. Whether binding was seen depends on the method and setting. For some of these results: In cells and extracts the contact can be indirect. Some results given as binding are weak or reduced against the parent protein; the word gives no strength. Tags and fused reporters may be left off the sequences shown.

Experimental findings from paper PMC9727301 are described below.

Experiment [1] concerns the target T1, HD2A (Arabidopsis histone deacetylase 2A), yeast two-hybrid fusion (Arabidopsis thaliana) (UniProt Q9FVE6).
T1 sequence: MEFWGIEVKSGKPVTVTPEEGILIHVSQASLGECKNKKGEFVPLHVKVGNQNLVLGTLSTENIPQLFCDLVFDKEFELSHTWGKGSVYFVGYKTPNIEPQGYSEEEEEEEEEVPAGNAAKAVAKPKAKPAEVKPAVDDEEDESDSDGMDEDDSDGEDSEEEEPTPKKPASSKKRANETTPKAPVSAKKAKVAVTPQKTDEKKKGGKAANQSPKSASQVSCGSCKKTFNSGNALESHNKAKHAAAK
The experiment in a line: two-hybrid; Matchmaker Gold system, Y2HGold strain co-transformed with pGBKT7 bait and pGADT7 prey; growth on SD-Leu/Trp/Ade/His (QDO) and QDO with X-alpha-Gal and Aureobasidin-A (QDO/X/A); both orientations.

The target of experiment [2] is T2, HD2A (Arabidopsis histone deacetylase 2A), BiFC fusion (Arabidopsis thaliana) (UniProt Q9FVE6).
T2 sequence: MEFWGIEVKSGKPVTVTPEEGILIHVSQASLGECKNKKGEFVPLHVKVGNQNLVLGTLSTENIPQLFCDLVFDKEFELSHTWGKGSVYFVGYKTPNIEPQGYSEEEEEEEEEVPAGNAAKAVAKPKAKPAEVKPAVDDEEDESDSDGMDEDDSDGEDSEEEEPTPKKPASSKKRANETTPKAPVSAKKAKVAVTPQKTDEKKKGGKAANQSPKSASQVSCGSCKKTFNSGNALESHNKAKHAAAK
The experiment is described as follows: split reporter; BiFC with YN and YC fusions co-infiltrated by Agrobacterium GV3101 into Nicotiana benthamiana leaf epidermis; YFP signal by confocal microscopy after 48-72 hours; both combinations.

For experiment [3], the target named is T3, HD2C (Arabidopsis histone deacetylase 2C), yeast two-hybrid fusion (Arabidopsis thaliana) (UniProt Q9LZR5).
T3 sequence: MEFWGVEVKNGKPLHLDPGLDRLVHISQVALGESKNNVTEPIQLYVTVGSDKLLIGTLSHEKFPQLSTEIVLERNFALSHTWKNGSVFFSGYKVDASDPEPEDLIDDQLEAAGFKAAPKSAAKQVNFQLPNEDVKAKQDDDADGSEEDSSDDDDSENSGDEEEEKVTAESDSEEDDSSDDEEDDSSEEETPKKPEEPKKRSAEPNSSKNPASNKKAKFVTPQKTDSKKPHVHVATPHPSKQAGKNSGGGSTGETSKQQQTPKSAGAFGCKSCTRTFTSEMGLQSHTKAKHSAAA
The experiment in a line: two-hybrid; Matchmaker Gold system, Y2HGold strain co-transformed with pGBKT7 bait and pGADT7 prey; growth on SD-Leu/Trp/Ade/His (QDO) and QDO with X-alpha-Gal and Aureobasidin-A (QDO/X/A); both orientations.

Experiment [4] concerns the target T4, HD2C (Arabidopsis histone deacetylase 2C), BiFC fusion (Arabidopsis thaliana) (UniProt Q9LZR5).
T4 sequence: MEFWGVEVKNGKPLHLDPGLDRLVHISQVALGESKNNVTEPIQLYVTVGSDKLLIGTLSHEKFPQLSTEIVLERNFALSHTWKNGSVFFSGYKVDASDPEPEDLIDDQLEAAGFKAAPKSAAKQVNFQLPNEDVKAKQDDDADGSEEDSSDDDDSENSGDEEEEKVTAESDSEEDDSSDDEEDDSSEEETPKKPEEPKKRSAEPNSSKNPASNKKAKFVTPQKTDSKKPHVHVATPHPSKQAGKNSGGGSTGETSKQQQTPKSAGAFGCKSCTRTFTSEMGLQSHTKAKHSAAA
The experiment in a line: split reporter; BiFC with YN and YC fusions co-infiltrated by Agrobacterium GV3101 into Nicotiana benthamiana leaf epidermis; YFP signal by confocal microscopy after 48-72 hours; both combinations.

B1: HD2C (Arabidopsis histone deacetylase 2C), yeast two-hybrid fusion (protein, UniProt Q9LZR5 1-294)
chain: MEFWGVEVKNGKPLHLDPGLDRLVHISQVALGESKNNVTEPIQLYVTVGSDKLLIGTLSHEKFPQLSTEIVLERNFALSHTWKNGSVFFSGYKVDASDPEPEDLIDDQLEAAGFKAAPKSAAKQVNFQLPNEDVKAKQDDDADGSEEDSSDDDDSENSGDEEEEKVTAESDSEEDDSSDDEEDDSSEEETPKKPEEPKKRSAEPNSSKNPASNKKAKFVTPQKTDSKKPHVHVATPHPSKQAGKNSGGGSTGETSKQQQTPKSAGAFGCKSCTRTFTSEMGLQSHTKAKHSAAA
As to B1, the binding entry in experiment [1] is listed as “binds”.

B2: HD2C (Arabidopsis histone deacetylase 2C), BiFC fusion (protein, UniProt Q9LZR5 1-294)
chain: MEFWGVEVKNGKPLHLDPGLDRLVHISQVALGESKNNVTEPIQLYVTVGSDKLLIGTLSHEKFPQLSTEIVLERNFALSHTWKNGSVFFSGYKVDASDPEPEDLIDDQLEAAGFKAAPKSAAKQVNFQLPNEDVKAKQDDDADGSEEDSSDDDDSENSGDEEEEKVTAESDSEEDDSSDDEEDDSSEEETPKKPEEPKKRSAEPNSSKNPASNKKAKFVTPQKTDSKKPHVHVATPHPSKQAGKNSGGGSTGETSKQQQTPKSAGAFGCKSCTRTFTSEMGLQSHTKAKHSAAA
In the case of B2, the binding entry in experiment [2] is given as “binds”.

B3: HD2A (Arabidopsis histone deacetylase 2A), yeast two-hybrid fusion (protein, UniProt Q9FVE6 1-245)
chain: MEFWGIEVKSGKPVTVTPEEGILIHVSQASLGECKNKKGEFVPLHVKVGNQNLVLGTLSTENIPQLFCDLVFDKEFELSHTWGKGSVYFVGYKTPNIEPQGYSEEEEEEEEEVPAGNAAKAVAKPKAKPAEVKPAVDDEEDESDSDGMDEDDSDGEDSEEEEPTPKKPASSKKRANETTPKAPVSAKKAKVAVTPQKTDEKKKGGKAANQSPKSASQVSCGSCKKTFNSGNALESHNKAKHAAAK
B3: in experiment [3], the binding result was “binds”.

B4: HD2A (Arabidopsis histone deacetylase 2A), BiFC fusion (protein, UniProt Q9FVE6 1-245)
chain: MEFWGIEVKSGKPVTVTPEEGILIHVSQASLGECKNKKGEFVPLHVKVGNQNLVLGTLSTENIPQLFCDLVFDKEFELSHTWGKGSVYFVGYKTPNIEPQGYSEEEEEEEEEVPAGNAAKAVAKPKAKPAEVKPAVDDEEDESDSDGMDEDDSDGEDSEEEEPTPKKPASSKKRANETTPKAPVSAKKAKVAVTPQKTDEKKKGGKAANQSPKSASQVSCGSCKKTFNSGNALESHNKAKHAAAK
As for B4, the binding result in experiment [4] is listed as “binds”.
